Some of these results come from one statement about several compounds together. At least one compound was matched to its structure with a doubt left.
Test system: Phytophthora infestans
Type: in vivo
Conditions: tomato, protective, application rate 100 g/ha, evaluation 3 days after inoculation

Compound	efficacy
CNC(=O)C(=NOC)c1ccccc1Oc1nccc(OC(C)C(F)(F)F)n1 (centres unmarked) [2-(methoxyimino)-N-methyl-2-[[4-(2,2,2-trifluoro-1-methylethoxy)-2-pyrimidyl]oxy]-phenylacetamide]	below 70%
CON=C(C(=O)OC)c1ccccc1Oc1nccc(OCC(F)(F)F)n1 [methyl 2-(methoxyimino)-2-[[4-(2,2,2-trifluoroethoxy)-2-pyrimidyl]oxy]-phenylacetate]	below 70%

— US6348471B1, “Pyrimidyl oxyphenylacetic acid derivatives” (Bayer Aktiengesellschaft, priority 1997, dated 2002)
